Results are given in words; binding and its absence hold for the method and conditions named. Binding seen in cells or lysates may run through a third protein. Here binding means that the protein was enriched with, or labelled near, the bait; the list need not be complete.
Target: SFB-tagged HAT domain of human OGA (C-OGA) (human)
Assay: affinity purification with mass spectrometry; 293T cells stably expressing SFB-OGA-HAT lysed in NETN buffer; streptavidin beads, biotin elution, then S protein beads; SDS-PAGE bands analysed by mass spectrometer

B1: endogenous NONO (protein, UniProt Q15233 1-471)
chain: MQSNKTFNLEKQNHTPRKHHQHHHQQQHHQQQQQQPPPPPIPANGQQASSQNEGLTIDLKNFRKPGEKTFTQRSRLFVGNLPPDITEEEMRKLFEKYGKAGEVFIHKDKGFGFIRLETRTLAEIAKVELDNMPLRGKQLRVRFACHSASLTVRNLPQYVSNELLEEAFSVFGQVERAVVIVDDRGRPSGKGIVEFSGKPAARKALDRCSEGSFLLTTFPRPVTVEPMDQLDDEEGLPEKLVIKNQQFHKEREQPPRFAQPGSFEYEYAMRWKALIEMEKQQQDQVDRNIKEAREKLEMEMEAARHEHQVMLMRQDLMRRQEELRRMEELHNQEVQKRKQLELRQEEERRRREEEMRRQQEEMMRRQQEGFKGTFPDAREQEIRMGQMAMGGAMGINNRGAMPPAPVPAGTPAPPGPATMMPDGTLGLTPPTTERFGQAATMEGIGAIGGTPPAFNRAAPGAEFAPNKRRRY
binding: binds

— publication PMC8209095
